In the supplement of paper PMC10077471:
In all, about 1,900 compounds were measured (“excess over highest single agent (ExcessHSA) synergy score, 6x6 matrix”: median about -83, lowest 2% from about -370 on). The list shows a part of the results.

Each compound was assayed on NCI-H446 (assay: excess over highest single agent (ExcessHSA) synergy score, 6x6 matrix; higher = less synergy (more negative = stronger synergy)). Details: 72 h; CellTiter-Glo viability.

SMILES	excess over highest single agent
CCc1c(O)cc(O)c(C(=O)c2ccc(OCCN3CCOCC3)c(OC)c2)c1CC(=O)N(CCOC)CCOC + Cc1sc2c(c1C)C(c1ccc(Cl)cc1)=N[C@@H](CC(=O)OC(C)(C)C)c1nnc(C)n1-2 [NCGC00250412-19]	-176
COc1cc2c(Nc3ccc(Cl)c(Cl)c3F)ncnc2cc1OC[C@@H]1C[C@@H]2CN(C)C[C@@H]2C1 + Cc1sc2c(c1C)C(c1ccc(Cl)cc1)=N[C@@H](CC(=O)OC(C)(C)C)c1nnc(C)n1-2 [NCGC00250412-19]	-234
CN(C)CCOC(c1ccccc1)c1ccccc1 + Cc1sc2c(c1C)C(c1ccc(Cl)cc1)=N[C@@H](CC(=O)OC(C)(C)C)c1nnc(C)n1-2 [NCGC00250412-19]	-287
CC(=O)[C@H]1CC[C@H]2[C@@H]3CCC4=CC(=O)CC[C@]4(C)[C@H]3CC[C@]12C + Cc1sc2c(c1C)C(c1ccc(Cl)cc1)=N[C@@H](CC(=O)OC(C)(C)C)c1nnc(C)n1-2 [NCGC00250412-19]	174
Cn1cc(CNCC2CCN(c3ncc(C(=O)NO)cn3)CC2)c2ccccc21 + Cc1sc2c(c1C)C(c1ccc(Cl)cc1)=N[C@@H](CC(=O)OC(C)(C)C)c1nnc(C)n1-2 [NCGC00250412-19]	-155
OC(CN1CCC(Cc2ccc(F)cc2)CC1)c1ccc(Cl)cc1 (stereo not given) + Cc1sc2c(c1C)C(c1ccc(Cl)cc1)=N[C@@H](CC(=O)OC(C)(C)C)c1nnc(C)n1-2 [NCGC00250412-19]	-47.9
CC[C@@]1(O)C(=O)OCc2c1cc1n(c2=O)Cc2cc3ccccc3nc2-1 + Cc1sc2c(c1C)C(c1ccc(Cl)cc1)=N[C@@H](CC(=O)OC(C)(C)C)c1nnc(C)n1-2 [NCGC00250412-19]	-249
CO/C1=C\C(C)=C\[C@@H](C)[C@@H](O)[C@@H](C)C/C(C)=C/C=C/[C@H](OC)[C@@H]([C@@H](C)[C@@H](O)[C@H](C)[C@@]2(O)C[C@@H](O)[C@H](C)[C@@H](C(C)C)O2)OC1=O + Cc1sc2c(c1C)C(c1ccc(Cl)cc1)=N[C@@H](CC(=O)OC(C)(C)C)c1nnc(C)n1-2 [NCGC00250412-19]	-118
CC(NC(=O)Cc1cc(F)cc(F)c1)C(=O)NC(C(=O)OC(C)(C)C)c1ccccc1 (stereo not given) + Cc1sc2c(c1C)C(c1ccc(Cl)cc1)=N[C@@H](CC(=O)OC(C)(C)C)c1nnc(C)n1-2 [NCGC00250412-19]	-217
C[C@]12CC[C@@H]3c4ccc(O)cc4CC[C@H]3[C@@H]1CC[C@@H]2O + Cc1sc2c(c1C)C(c1ccc(Cl)cc1)=N[C@@H](CC(=O)OC(C)(C)C)c1nnc(C)n1-2 [NCGC00250412-19]	-54.9
CN(C)c1cc(NC(=O)CNC(C)(C)C)c(O)c2c1C[C@H]1C[C@H]3[C@H](N(C)C)C(=O)C(C(N)=O)=C(O)[C@@]3(O)C(=O)C1=C2O + Cc1sc2c(c1C)C(c1ccc(Cl)cc1)=N[C@@H](CC(=O)OC(C)(C)C)c1nnc(C)n1-2 [NCGC00250412-19]	-339
CCNC(=O)Nc1ccc(-c2nc3c(c(N4CCOC[C@@H]4C)n2)CCN(C2COC2)C3)cc1 + Cc1sc2c(c1C)C(c1ccc(Cl)cc1)=N[C@@H](CC(=O)OC(C)(C)C)c1nnc(C)n1-2 [NCGC00250412-19]	-139
C[C@H](NC(=O)/C(C#N)=C/c1cccc(Br)n1)c1ccccc1 + Cc1sc2c(c1C)C(c1ccc(Cl)cc1)=N[C@@H](CC(=O)OC(C)(C)C)c1nnc(C)n1-2 [NCGC00250412-19]	-265
O=C(O)C(=O)Nc1cccc(-c2nnn[nH]2)c1 + Cc1sc2c(c1C)C(c1ccc(Cl)cc1)=N[C@@H](CC(=O)OC(C)(C)C)c1nnc(C)n1-2 [NCGC00250412-19]	42.8
CC1CNc2c(cccc2S(=O)(=O)N[C@@H](CCCNC(=N)N)C(=O)N2CC[C@@H](C)C[C@@H]2C(=O)O)C1 (stereo not given in full) + Cc1sc2c(c1C)C(c1ccc(Cl)cc1)=N[C@@H](CC(=O)OC(C)(C)C)c1nnc(C)n1-2 [NCGC00250412-19]	-42
CO[C@H]1C[C@@H]2CC[C@@H](C)[C@@](O)(O2)C(=O)C(=O)N2CCCC[C@H]2C(=O)O[C@H]([C@H](C)C[C@@H]2CC[C@@H](OCCO)[C@H](OC)C2)CC(=O)[C@H](C)/C=C(\C)[C@@H](O)[C@@H](OC)C(=O)[C@H](C)C[C@H](C)/C=C/C=C/C=C/1C + Cc1sc2c(c1C)C(c1ccc(Cl)cc1)=N[C@@H](CC(=O)OC(C)(C)C)c1nnc(C)n1-2 [NCGC00250412-19]	-598
Fc1ccc(Cl)cc1-c1nc(Nc2ccncc2)c2nccnc2n1 + Cc1sc2c(c1C)C(c1ccc(Cl)cc1)=N[C@@H](CC(=O)OC(C)(C)C)c1nnc(C)n1-2 [NCGC00250412-19]	77.7
Nc1ccn([C@@H]2O[C@H](CO)[C@@H](O)C2(F)F)c(=O)n1 + Cc1sc2c(c1C)C(c1ccc(Cl)cc1)=N[C@@H](CC(=O)OC(C)(C)C)c1nnc(C)n1-2 [NCGC00250412-19]	-379

SMILES	excess over highest single agent
COc1ccccc1N1CCN(CCN(C(=O)C2CCCCC2)c2ccccn2)CC1 + Cc1sc2c(c1C)C(c1ccc(Cl)cc1)=N[C@@H](CC(=O)OC(C)(C)C)c1nnc(C)n1-2 [NCGC00250412-19]	-78.4
CN1CCN(c2ccc([N+](=O)[O-])c3no[n+]([O-])c23)CC1 + Cc1sc2c(c1C)C(c1ccc(Cl)cc1)=N[C@@H](CC(=O)OC(C)(C)C)c1nnc(C)n1-2 [NCGC00250412-19]	59.7
CC(=O)O[C@@]12CO[C@@H]1C[C@H](O)[C@@]1(C)C(=O)[C@H](O)C3=C(C)[C@@H](OC(=O)[C@H](O)[C@@H](NC(=O)OC(C)(C)C)c4ccccc4)C[C@@](O)([C@@H](OC(=O)c4ccccc4)[C@H]21)C3(C)C + Cc1sc2c(c1C)C(c1ccc(Cl)cc1)=N[C@@H](CC(=O)OC(C)(C)C)c1nnc(C)n1-2 [NCGC00250412-19]	-135
O=C(c1ccc(Nc2nccc(-c3cc4ccccc4s3)n2)cc1)N1CCC(N2CCCC2)CC1 + Cc1sc2c(c1C)C(c1ccc(Cl)cc1)=N[C@@H](CC(=O)OC(C)(C)C)c1nnc(C)n1-2 [NCGC00250412-19]	-181
Nc1ncnc2c1ncn2[C@@H]1O[C@H](CO)[C@@H](O)[C@H]1O + Cc1sc2c(c1C)C(c1ccc(Cl)cc1)=N[C@@H](CC(=O)OC(C)(C)C)c1nnc(C)n1-2 [NCGC00250412-19]	-247
C[C@@H](NC(=O)c1ncnc(N)c1Cl)c1ncc(C(=O)Nc2cc(C(F)(F)F)c(Cl)cn2)s1 + Cc1sc2c(c1C)C(c1ccc(Cl)cc1)=N[C@@H](CC(=O)OC(C)(C)C)c1nnc(C)n1-2 [NCGC00250412-19]	8.97
O=C(O)C(O)Cc1ccc(O)c(O)c1 (stereo not given) + Cc1sc2c(c1C)C(c1ccc(Cl)cc1)=N[C@@H](CC(=O)OC(C)(C)C)c1nnc(C)n1-2 [NCGC00250412-19]	-9.7
CC1(C)CCC(C)(C)c2cc(NC(=O)c3ccc(C(=O)O)cc3)ccc21 + Cc1sc2c(c1C)C(c1ccc(Cl)cc1)=N[C@@H](CC(=O)OC(C)(C)C)c1nnc(C)n1-2 [NCGC00250412-19]	-132
N[C@@H](Cc1cc(I)c(Oc2cc(I)c(O)c(I)c2)c(I)c1)C(=O)O + Cc1sc2c(c1C)C(c1ccc(Cl)cc1)=N[C@@H](CC(=O)OC(C)(C)C)c1nnc(C)n1-2 [NCGC00250412-19]	-111
CCNC(=O)C[C@@H]1N=C(c2ccc(Cl)cc2)c2cc(OC)ccc2-n2c(C)nnc21 + Cc1sc2c(c1C)C(c1ccc(Cl)cc1)=N[C@@H](CC(=O)OC(C)(C)C)c1nnc(C)n1-2 [NCGC00250412-19]	88.3
CCCCCCCCCC(=O)N[C@@H](Cc1c[nH]c2ccccc12)C(=O)N[C@@H](CC(N)=O)C(=O)N[C@@H](CC(=O)O)C(=O)N[C@@H]1C(=O)NCC(=O)N[C@@H](CCCN)C(=O)N[C@@H](CC(=O)O)C(=O)N[C@H](C)C(=O)N[C@@H](CC(=O)O)C(=O)NCC(=O)N[C@H](CO)C(=O)N[C@@H]([C@H](C)CC(=O)O)C(=O)N[C@@H](CC(=O)c2ccccc2N)C(=O)O[C@@H]1C + Cc1sc2c(c1C)C(c1ccc(Cl)cc1)=N[C@@H](CC(=O)OC(C)(C)C)c1nnc(C)n1-2 [NCGC00250412-19]	-103
COc1ccc(S(=O)(=O)Nc2cc(-c3c(O)ccc4ccccc34)c(O)c3ccccc23)cc1 + Cc1sc2c(c1C)C(c1ccc(Cl)cc1)=N[C@@H](CC(=O)OC(C)(C)C)c1nnc(C)n1-2 [NCGC00250412-19]	-69.5
Nc1cccc2c1C(=O)N(C1CCC(=O)NC1=O)C2=O (stereo not given) + Cc1sc2c(c1C)C(c1ccc(Cl)cc1)=N[C@@H](CC(=O)OC(C)(C)C)c1nnc(C)n1-2 [NCGC00250412-19]	-176
COc1cc(C)c(Sc2cnc(NC(=O)c3ccc(CNC(C)C(C)(C)C)cc3)s2)cc1C(=O)N1CCN(C(C)=O)CC1 (stereo not given) + Cc1sc2c(c1C)C(c1ccc(Cl)cc1)=N[C@@H](CC(=O)OC(C)(C)C)c1nnc(C)n1-2 [NCGC00250412-19]	-309
CC(C)n1nc(-c2ccc3oc(N)nc3c2)c2c(N)ncnc21 + Cc1sc2c(c1C)C(c1ccc(Cl)cc1)=N[C@@H](CC(=O)OC(C)(C)C)c1nnc(C)n1-2 [NCGC00250412-19]	-212
N[C@@H](Cc1c[nH]c2ccc(O)cc12)C(=O)O + Cc1sc2c(c1C)C(c1ccc(Cl)cc1)=N[C@@H](CC(=O)OC(C)(C)C)c1nnc(C)n1-2 [NCGC00250412-19]	-48.2
N=C(N)Nc1ccc(C(=O)Oc2ccc3cc(C(=N)N)ccc3c2)cc1 + Cc1sc2c(c1C)C(c1ccc(Cl)cc1)=N[C@@H](CC(=O)OC(C)(C)C)c1nnc(C)n1-2 [NCGC00250412-19]	92.9

Two entries from above, comma-delimited.
SMILES,excess over highest single agent
Nc1ncnc2c1ncn2[C@@H]1O[C@H](CO)[C@@H](O)[C@H]1O + Cc1sc2c(c1C)C(c1ccc(Cl)cc1)=N[C@@H](CC(=O)OC(C)(C)C)c1nnc(C)n1-2 [NCGC00250412-19],-247
C[C@@H](NC(=O)c1ncnc(N)c1Cl)c1ncc(C(=O)Nc2cc(C(F)(F)F)c(Cl)cn2)s1 + Cc1sc2c(c1C)C(c1ccc(Cl)cc1)=N[C@@H](CC(=O)OC(C)(C)C)c1nnc(C)n1-2 [NCGC00250412-19],8.97
